Assay results as given in PubChem BioAssay AID504444 (National Center for Advancing Translational Sciences (NCATS), 2011).
Values joined by “and” are separate entries in the source; they are usually repeats but may differ in a detail not shown here. Identical values can stand only once. Screen size: about 360,000 compounds; about 7,500 (2.1%) were called active. The shares of active, inactive and inconclusive entries below differ from those in the screen. Calls follow the shape of the dose curve; as a rule, active = well fitted inhibition curve with a large enough effect; inconclusive = small, poorly fitted or top-dose-only effect, or effect the other way; inactive = flat fitted curve, though single readings scatter. Potencies beside an inconclusive call are fits to weak or partial responses and may not hold up. Some structures have more than one record in an assay (separate samples or runs), and their calls can disagree.

Assay: Nrf2 qHTS screen for inhibitors; also: nearly all actives have a fitted effect of over 60% in size
Conditions: A549 ARE-Fluc reporter, luciferase luminescence, 18-24 h; activity change, negative = inhibition: at 46 µM (top of the series)
How it was run: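 Nrf2 activity is the BugLite luminescence, read 15 min after reagent at room temperature, following CellTiter-Fluor cytotoxicity readout (30 min, 37C). Compound titrations were applied for 18-24 h to 5000 A549 ARE_Fluc cells/well in 5% FBS OPTI-MEM.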
% is scaled to controls: 0 for no effect and ±100 for the full control effect; potency is read from the fitted curve at half-maximal effect.

SMILES	Potency	activity change, negative = inhibition
CCOC(=O)CC(NC(=O)C(Cc1ccc(N(CCCl)CCCl)cc1)NC(C)=O)C(=O)OCC (centres undefined)	inconclusive: 13 µM [falling, single point]	–
CCOP(=O)(OCC)c1nc(-c2ccc(Cl)cc2)oc1NCc1ccccc1	inconclusive: 25.9 µM [falling, single point]	–
CCN1C(=O)c2ccccc2Sc2ccc(C(=O)N3CCC4(CC3)OCCO4)cc21	inconclusive: 3.26 µM [falling, partial curve, poor fit]	–
CCOc1ccc(-n2c(-c3cccs3)nc3ccccc3c2=O)cc1	–	inactive: -23.4%
CC(=O)c1cn(Cc2ccc(C#N)cc2)c2ccccc12	–	inactive: -17.8%
COC(=O)C1=C(c2cccc(OCc3ccccc3)c2)C[C@@H]2CC[C@H]1N2C(=O)NCc1ccc(Cl)cc1	active: 23.1 µM	–
Nc1ncnc2c1ccn2[C@@H]1O[C@H](CO)[C@@H](O)[C@H]1O	active: 3.66 µM	–
O=C(Nc1ccc(Cl)cc1C(=O)c1ccccc1)c1ccco1	inconclusive: 0.092 µM [falling, full curve, poor fit]	–
Cc1oc(-c2ccc(Cl)cc2)nc1CN1CCC(C(=O)NCCCN2CCN(c3cccc(Cl)c3)CC2)CC1	inconclusive: 29.1 µM [falling, single point]	–
O=C(c1ccccc1)c1cn(CC(=O)N2CCCc3ccccc32)c2ccccc12	inconclusive: 29.1 µM [falling, single point]	–
CSc1ccc(CN2CCN(Cc3ccccc3Cl)CC2)cc1	inconclusive: 29.1 µM [falling, single point]	–
CC12CC(O)C3C(CCC4=CC(=O)CCC43C)C1CCC2=O (centres undefined)	inconclusive: 0.116 µM [falling, partial curve, poor fit]	–
S=C1NC2(CCCCC2)NC12CCCCC2	–	inactive: -28.7%
Cc1ccc(Cc2c(C)nc3nc(SCC(=O)N4CCC5(CC4)OCCO5)nn3c2C)cc1	inconclusive: 9.2 µM [falling, partial curve, poor fit]	–
CCN(CC)C1=NC(=[N+](CC)CC)c2ccccc21	active: 2.06 µM	–
Cc1nc2ccccn2c1P(=S)(c1ccccc1)c1ccccc1	inconclusive: 2.06 µM [falling, full curve]	–
CCN(CC)c1ccc(N=Cc2c(O)n(CCc3ccc(OC)c(OC)c3)c(=O)[nH]c2=O)cc1	inconclusive: 20.6 µM [falling, partial curve, poor fit]	–
COCc1cc(OC(=O)N(C)C)nc(-c2ccc(C)c(Cl)c2)n1	–	inactive: -1.28%
C[C@H]1O[C@@H](OC2CC[C@]3(C=O)[C@H]4CC[C@]5(C)[C@@H](C6=CC(=O)OC6)CC[C@]5(O)[C@@H]4CC[C@]3(O)C2)CC2OC(C)(C)OC21 (some centres undefined)	active: 0.164 µM	–
O=C(/C=C/c1cccc(F)c1)Nc1ccc(S(=O)(=O)Nc2ncccn2)cc1	inconclusive: 16.4 µM [falling, single point]	–
CN(C)C(=O)Oc1cccc([N+](C)(C)C)c1	inactive and active: 6.51 µM	–
C=CCn1c(O)c(C(C)=NCc2cc(OC)cc(OC)c2)c(=O)[nH]c1=O	active: 7.31 µM	–
COC(=O)C1=C(c2cc3ccccc3s2)C[C@@H]2CC[C@H]1N2C(=O)NCC1CC1	active: 18.4 µM	–
COc1ccc(NC(=O)CSc2nc(-c3ccco3)cc(C(F)(F)F)n2)cc1OC	active: 1.64 µM	–
